Laboratory results: publication PMC5839545
No constants are given. Whether binding was seen depends on the method and setting. Blank lines part the entries; values can stand above or below the substance they belong to.

By UniProt entry, the sequences of proteins in these tests, tags left out. Where a name states a change or a piece, a line headed by the entry shows the natural chain unless it says otherwise. Residues count along the entry.
UniProt Q5EE01: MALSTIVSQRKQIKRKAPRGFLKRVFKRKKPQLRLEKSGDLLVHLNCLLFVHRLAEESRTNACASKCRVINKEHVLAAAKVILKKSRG
CENP-T^∆C-(s)-mCherry (Q96BT3, residues 1-395): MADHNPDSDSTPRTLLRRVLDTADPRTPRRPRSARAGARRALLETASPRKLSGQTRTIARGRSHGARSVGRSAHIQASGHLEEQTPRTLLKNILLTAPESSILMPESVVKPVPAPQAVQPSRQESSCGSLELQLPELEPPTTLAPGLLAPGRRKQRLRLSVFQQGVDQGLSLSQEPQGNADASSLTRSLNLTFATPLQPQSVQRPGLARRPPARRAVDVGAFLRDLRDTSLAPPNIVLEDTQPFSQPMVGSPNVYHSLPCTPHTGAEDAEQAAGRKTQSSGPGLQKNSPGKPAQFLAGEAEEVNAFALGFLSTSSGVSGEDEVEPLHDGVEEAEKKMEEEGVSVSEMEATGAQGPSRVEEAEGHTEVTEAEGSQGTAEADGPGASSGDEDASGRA
mCherry-(s)-CENPT^∆N (Q96BT3, residues 396-561): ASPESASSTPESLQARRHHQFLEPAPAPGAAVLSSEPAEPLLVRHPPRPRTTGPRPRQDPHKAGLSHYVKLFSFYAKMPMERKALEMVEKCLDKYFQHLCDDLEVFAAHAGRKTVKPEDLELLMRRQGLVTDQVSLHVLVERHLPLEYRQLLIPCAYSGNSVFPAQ
UniProt A8MT69: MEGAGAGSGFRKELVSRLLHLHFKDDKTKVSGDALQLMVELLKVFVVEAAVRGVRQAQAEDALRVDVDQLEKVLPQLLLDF
UniProt Q9NSP4: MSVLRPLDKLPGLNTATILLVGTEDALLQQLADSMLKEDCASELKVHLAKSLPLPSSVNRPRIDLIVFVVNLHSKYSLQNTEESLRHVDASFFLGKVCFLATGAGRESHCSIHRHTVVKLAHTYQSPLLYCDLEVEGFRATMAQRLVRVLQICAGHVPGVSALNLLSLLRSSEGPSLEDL
UniProt Q8N2Z9: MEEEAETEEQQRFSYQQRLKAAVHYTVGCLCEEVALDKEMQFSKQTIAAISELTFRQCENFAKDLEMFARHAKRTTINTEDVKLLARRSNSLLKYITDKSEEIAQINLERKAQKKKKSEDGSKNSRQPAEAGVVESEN
UniProt Q8NBT2: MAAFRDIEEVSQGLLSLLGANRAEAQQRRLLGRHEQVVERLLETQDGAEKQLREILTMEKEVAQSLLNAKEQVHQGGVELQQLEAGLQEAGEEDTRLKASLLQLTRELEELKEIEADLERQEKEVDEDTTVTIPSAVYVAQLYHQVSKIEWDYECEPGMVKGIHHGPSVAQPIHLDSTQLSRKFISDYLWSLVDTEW

Tests used:
[1] = molecular target: mCherry-(s)-CENP-W (human) (UniProt Q5EE01); test: single-wavelength fluorescence cross-correlation spectroscopy (SW-FCCS); EGFP and mCherry fusion proteins co-expressed in living interphase HEK293 cells; nucleoplasm; 37°C; 514 nm; effective (apparent) Kd from scatter plot (S) or histogram (H), corrected for non-fluorescent mCherry and observation volumes
[2] = molecular target: mCherry-(s)-CENPT^∆N (human) (UniProt Q96BT3); test: as above
[3] = molecular target: mCherry-(s)-CENP-X (human) (UniProt A8MT69); test: as above
[4] = molecular target: CENP-T^∆C-(s)-mCherry (human) (UniProt Q96BT3); test: dual color fluorescence cross-correlation spectroscopy (DC-FCCS); EGFP and mCherry fusion proteins co-expressed in living interphase HEp-2 or U2OS cells; spots in the nucleoplasm free of kinetochores, focal volume bleached before; 37°C; 488 and 561 nm; corrected values are the measured ones times about two

Substance: EGFP-(s)-CENP-W (from UniProt Q5EE01 1-88)
- binding [3]: no binding

Substance: EGFP-(s)-CENP-M (from UniProt Q9NSP4 1-180)
- binding [4]: no binding

Substance: EGFP-(s)-CENP-S (from UniProt Q8N2Z9 1-138)
- binding [1]: no binding

Continued, values first:

- binding [1]: no binding
Substance: EGFP-(s)-CENP-T^∆C (from UniProt Q96BT3 1-395) (domain or fragment)

- binding [2]: no binding
Substance: EGFP-(s)-Spc24 (from UniProt Q8NBT2 1-197)
